The values that follow come from PMC9481933.

Amino acid sequences for entries named in this document (tags omitted).
UniProt P08238: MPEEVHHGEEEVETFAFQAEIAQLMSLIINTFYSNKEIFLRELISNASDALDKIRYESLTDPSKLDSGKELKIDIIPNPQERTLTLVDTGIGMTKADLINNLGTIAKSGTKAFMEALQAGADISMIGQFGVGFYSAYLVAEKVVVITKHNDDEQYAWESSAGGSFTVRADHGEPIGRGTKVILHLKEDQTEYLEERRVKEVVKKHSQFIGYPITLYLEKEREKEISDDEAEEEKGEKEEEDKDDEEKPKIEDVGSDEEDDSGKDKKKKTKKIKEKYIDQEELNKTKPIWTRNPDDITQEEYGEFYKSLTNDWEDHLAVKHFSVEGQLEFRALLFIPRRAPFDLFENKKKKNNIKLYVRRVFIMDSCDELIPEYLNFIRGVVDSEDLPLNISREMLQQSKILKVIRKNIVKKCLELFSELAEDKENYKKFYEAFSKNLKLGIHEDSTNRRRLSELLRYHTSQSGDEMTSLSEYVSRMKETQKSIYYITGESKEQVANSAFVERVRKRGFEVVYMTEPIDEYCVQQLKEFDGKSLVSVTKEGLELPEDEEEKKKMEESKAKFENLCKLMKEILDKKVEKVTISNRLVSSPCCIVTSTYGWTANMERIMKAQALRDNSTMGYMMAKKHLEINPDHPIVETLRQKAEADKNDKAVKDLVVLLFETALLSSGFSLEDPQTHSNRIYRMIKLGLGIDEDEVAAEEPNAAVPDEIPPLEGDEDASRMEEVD

No constants are given. Whether binding was seen depends on the method and setting. In cells and extracts the contact can be indirect. Some entries that bind do so weakly or less than the wild type. For part of these data: Tags and fused reporters may be left off the sequences shown.

One experiment has as its target HA-FLAG-HSP90AB1 (UniProt P08238). Briefly: co-IP; SH-SY5Y CCNF WT and CCNF KO cells expressing HA-FLAG-HSP90AB1 or mock; mild lysis, HA-IP, SDS-PAGE and immunoblotting of endogenous clients and co-factors. In general terms: In western blotting, separated proteins are transferred to a membrane and probed.
The target in experiment [1] is T1, HA-FLAG-tagged Cyclin-F (wild type), in SH-SY5Y cells (UniProt P41002).
T1 sequence: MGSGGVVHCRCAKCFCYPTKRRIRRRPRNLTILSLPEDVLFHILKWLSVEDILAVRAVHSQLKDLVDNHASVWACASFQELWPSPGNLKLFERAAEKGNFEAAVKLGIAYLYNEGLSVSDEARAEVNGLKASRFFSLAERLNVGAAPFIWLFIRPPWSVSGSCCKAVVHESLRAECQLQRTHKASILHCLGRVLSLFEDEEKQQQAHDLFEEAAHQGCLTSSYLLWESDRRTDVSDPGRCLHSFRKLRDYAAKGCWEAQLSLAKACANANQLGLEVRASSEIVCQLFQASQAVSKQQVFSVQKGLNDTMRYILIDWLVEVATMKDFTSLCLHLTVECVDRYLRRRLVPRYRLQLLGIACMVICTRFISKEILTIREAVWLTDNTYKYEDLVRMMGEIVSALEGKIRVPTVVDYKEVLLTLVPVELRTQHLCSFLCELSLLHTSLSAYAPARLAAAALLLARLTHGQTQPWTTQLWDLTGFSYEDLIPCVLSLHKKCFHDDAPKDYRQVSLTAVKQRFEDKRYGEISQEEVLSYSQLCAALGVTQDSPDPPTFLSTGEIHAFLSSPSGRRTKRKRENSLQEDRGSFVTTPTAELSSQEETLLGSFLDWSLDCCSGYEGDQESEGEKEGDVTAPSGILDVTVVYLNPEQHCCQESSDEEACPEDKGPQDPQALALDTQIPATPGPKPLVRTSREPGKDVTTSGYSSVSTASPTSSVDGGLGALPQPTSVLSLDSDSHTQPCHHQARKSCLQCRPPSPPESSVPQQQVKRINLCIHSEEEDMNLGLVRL
Nature of the experiment: co-IP; lysates of parental (mock), HA-FLAG-FBXO28 or HA-FLAG-CCNF overexpressing SH-SY5Y cells; HA or Flag immunoprecipitation overnight at 4 C, SDS-PAGE and immunoblotting of endogenous partners.

A further experiment has as its target HA-FLAG-HSP90AB1, P08238. Nature of the experiment: co-IP; SH-SY5Y CCNF WT and CCNF KO cells expressing HA-FLAG-HSP90AB1 or mock; mild lysis, HA-IP, SDS-PAGE and immunoblotting of endogenous clients and co-factors. The settings on record: remark: other sources report otherwise.

B1: TBK1 (endogenous) (protein, UniProt Q9UHD2 1-729)
chain: MQSTSNHLWLLSDILGQGATANVFRGRHKKTGDLFAIKVFNNISFLRPVDVQMREFEVLKKLNHKNIVKLFAIEEETTTRHKVLIMEFCPCGSLYTVLEEPSNAYGLPESEFLIVLRDVVGGMNHLRENGIVHRDIKPGNIMRVIGEDGQSVYKLTDFGAARELEDDEQFVSLYGTEEYLHPDMYERAVLRKDHQKKYGATVDLWSIGVTFYHAATGSLPFRPFEGPRRNKEVMYKIITGKPSGAISGVQKAENGPIDWSGDMPVSCSLSRGLQVLLTPVLANILEADQEKCWGFDQFFAETSDILHRMVIHVFSLQQMTAHKIYIHSYNTATIFHELVYKQTKIISSNQELIYEGRRLVLEPGRLAQHFPKTTEENPIFVVSREPLNTIGLIYEKISLPKVHPRYDLDGDASMAKAITGVVCYACRIASTLLLYQELMRKGIRWLIELIKDDYNETVHKKTEVVITLDFCIRNIEKTVKVYEKLMKINLEAAELGEISDIHTKLLRLSSSQGTIETSLQDIDSRLSPGGSLADAWAHQEGTHPKDRNVEKLQVLLNCMTEIYYQFKKDKAERRLAYNEEQIHKFDKQKLYYHATKAMTHFTDECVKKYEAFLNKSEEWIRKMLHLRKQLLSLTNQCFDIEEEVSKYQEYTNELQETLPQKMFTASSGIKHTMTPIYPSSNTLVEMTLGMKKLKEEMEGVVKELAENNHILERFGSLTMDGGLRNVDCL
Take B1: the binding entry with HA-FLAG-HSP90AB1 is “binds”.

B2: DNAJC7 (endogenous, human) (protein, UniProt Q99615 1-494)
chain: MAAAAECDVVMAATEPELLDDQEAKREAETFKEQGNAYYAKKDYNEAYNYYTKAIDMCPKNASYYGNRAATLMMLGRFREALGDAQQSVRLDDSFVRGHLREGKCHLSLGNAMAACRSFQRALELDHKNAQAQQEFKNANAVMEYEKIAETDFEKRDFRKVVFCMDRALEFAPACHRFKILKAECLAMLGRYPEAQSVASDILRMDSTNADALYVRGLCLYYEDCIEKAVQFFVQALRMAPDHEKACIACRNAKALKAKKEDGNKAFKEGNYKLAYELYTEALGIDPNNIKTNAKLYCNRGTVNSKLRKLDDAIEDCTNAVKLDDTYIKAYLRRAQCYMDTEQYEEAVRDYEKVYQTEKTKEHKQLLKNAQLELKKSKRKDYYKILGVDKNASEDEIKKAYRKRALMHHPDRHSGASAEVQKEEEKKFKEVGEAFTILSDPKKKTRYDSGQDLDEEGMNMGDFDPNNIFKAFFGGPGGFSFEASGPGNFFFQFG
With B2, in experiment [1], the binding result is “binds”.

B3: heat shock factor 1 (HSF1) (endogenous), Q00613 1-529 (protein)
chain: MDLPVGPGAAGPSNVPAFLTKLWTLVSDPDTDALICWSPSGNSFHVFDQGQFAKEVLPKYFKHNNMASFVRQLNMYGFRKVVHIEQGGLVKPERDDTEFQHPCFLRGQEQLLENIKRKVTSVSTLKSEDIKIRQDSVTKLLTDVQLMKGKQECMDSKLLAMKHENEALWREVASLRQKHAQQQKVVNKLIQFLISLVQSNRILGVKRKIPLMLNDSGSAHSMPKYSRQFSLEHVHGSGPYSAPSPAYSSSSLYAPDAVASSGPIISDITELAPASPMASPGGSIDERPLSSSPLVRVKEEPPSPPQSPRVEEASPGRPSSVDTLLSPTALIDSILRESEPAPASVTALTDARGHTDTEGRPPSPPPTSTPEKCLSVACLDKNELSDHLDAMDSNLDNLQTMLSSHGFSVDTSALLDLFSPSVTVPDMSLPDLDSSLASIQELLSPQEPPRPPEAENSSPDSGKQLVHYTAQPLFLLDPGSVDTGSNDLPVLFELGEGSYFSEGDGFAEDPTISLLTGSEPPKAKDPTVS
Regarding B3, the binding entry with HA-FLAG-HSP90AB1, P08238 is reported as “binds”.
